# Measurements from the supplement of paper PMC6411743.
# ± gives the standard deviation of the averaged measurements. The entries are a selection whose mix differs from that of the whole data set.
# Assays:
# Test in all cases: NP40-soluble protein abundance relative to vehicle (solubility fold change) (ratio); higher = more soluble protein in presence of ATP
# [1] = biological target: T1, UniProt Q8WYQ5 and related entries
# T1 sequence (whole entry): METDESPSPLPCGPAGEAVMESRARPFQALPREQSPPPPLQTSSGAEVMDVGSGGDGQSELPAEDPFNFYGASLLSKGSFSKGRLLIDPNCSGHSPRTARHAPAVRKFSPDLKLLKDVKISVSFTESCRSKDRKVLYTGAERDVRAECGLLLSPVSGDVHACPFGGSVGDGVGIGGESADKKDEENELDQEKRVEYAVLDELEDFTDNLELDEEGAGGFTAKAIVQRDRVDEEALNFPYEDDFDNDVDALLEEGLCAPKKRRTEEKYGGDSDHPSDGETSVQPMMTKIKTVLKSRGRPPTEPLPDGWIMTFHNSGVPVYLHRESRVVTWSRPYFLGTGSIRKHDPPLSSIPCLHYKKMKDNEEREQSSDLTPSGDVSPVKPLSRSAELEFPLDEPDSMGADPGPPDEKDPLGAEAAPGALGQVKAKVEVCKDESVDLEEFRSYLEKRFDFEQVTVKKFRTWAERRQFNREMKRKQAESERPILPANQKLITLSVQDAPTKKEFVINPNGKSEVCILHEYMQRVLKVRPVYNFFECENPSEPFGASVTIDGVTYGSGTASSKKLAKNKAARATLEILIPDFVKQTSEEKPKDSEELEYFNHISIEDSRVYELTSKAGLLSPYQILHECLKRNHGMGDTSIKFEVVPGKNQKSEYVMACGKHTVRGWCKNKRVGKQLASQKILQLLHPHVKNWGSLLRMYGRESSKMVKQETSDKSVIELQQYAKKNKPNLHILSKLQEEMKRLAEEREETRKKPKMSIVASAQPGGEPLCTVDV
# In short: (§1)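 Crude Jurkat lysate, prepared by Dounce homogenisation, was exposed to eight concentrations from 0.1 to 10 mM for 10 min at room temperature and then 3 min at 37 °C. Solubilisation used 0.8% NP40 with benzonase for 60 min at 4 °C, followed by ultracentrifugation and TMT labelling of the supernatant for LC-MS/MS. After vsn normalisation of intensities, each value is the fold change against the detergent-processed vehicle within each replicate, across three independent experiments.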
# [2] = biological target: T2, UniProt Q92896 and related entries
# T2 sequence (whole entry): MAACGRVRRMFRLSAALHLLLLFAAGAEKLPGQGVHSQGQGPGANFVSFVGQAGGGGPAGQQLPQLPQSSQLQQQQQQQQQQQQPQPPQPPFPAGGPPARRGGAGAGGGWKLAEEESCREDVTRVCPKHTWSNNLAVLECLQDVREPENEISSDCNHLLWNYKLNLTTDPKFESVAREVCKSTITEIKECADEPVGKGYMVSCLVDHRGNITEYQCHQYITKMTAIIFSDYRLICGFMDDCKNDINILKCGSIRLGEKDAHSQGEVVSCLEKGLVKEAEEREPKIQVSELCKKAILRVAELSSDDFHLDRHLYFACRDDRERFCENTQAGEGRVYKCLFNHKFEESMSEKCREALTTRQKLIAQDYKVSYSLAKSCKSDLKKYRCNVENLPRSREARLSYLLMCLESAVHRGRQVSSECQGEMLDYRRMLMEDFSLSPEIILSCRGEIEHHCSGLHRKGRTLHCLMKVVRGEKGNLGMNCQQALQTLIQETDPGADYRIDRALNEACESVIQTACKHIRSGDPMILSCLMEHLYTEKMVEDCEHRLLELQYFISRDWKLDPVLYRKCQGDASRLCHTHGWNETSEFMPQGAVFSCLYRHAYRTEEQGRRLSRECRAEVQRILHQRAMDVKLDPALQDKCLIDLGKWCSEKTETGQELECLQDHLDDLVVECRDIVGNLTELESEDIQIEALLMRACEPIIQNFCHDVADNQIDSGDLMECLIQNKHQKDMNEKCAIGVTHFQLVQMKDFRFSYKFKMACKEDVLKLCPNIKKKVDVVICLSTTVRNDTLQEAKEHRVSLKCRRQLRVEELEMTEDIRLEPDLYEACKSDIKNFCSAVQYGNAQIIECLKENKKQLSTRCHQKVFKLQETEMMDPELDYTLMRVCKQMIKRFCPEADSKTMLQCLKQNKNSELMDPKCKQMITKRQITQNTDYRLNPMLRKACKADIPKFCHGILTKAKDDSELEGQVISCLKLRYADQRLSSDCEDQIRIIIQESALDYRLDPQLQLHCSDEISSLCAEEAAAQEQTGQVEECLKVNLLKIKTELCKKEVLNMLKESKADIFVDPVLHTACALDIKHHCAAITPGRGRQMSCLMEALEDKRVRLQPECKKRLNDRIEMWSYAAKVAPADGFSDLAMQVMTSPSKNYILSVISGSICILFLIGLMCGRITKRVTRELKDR
# In short: as §1
# [3] = biological target: T3, UniProt Q969V3 and related entries
# T3 sequence (whole entry): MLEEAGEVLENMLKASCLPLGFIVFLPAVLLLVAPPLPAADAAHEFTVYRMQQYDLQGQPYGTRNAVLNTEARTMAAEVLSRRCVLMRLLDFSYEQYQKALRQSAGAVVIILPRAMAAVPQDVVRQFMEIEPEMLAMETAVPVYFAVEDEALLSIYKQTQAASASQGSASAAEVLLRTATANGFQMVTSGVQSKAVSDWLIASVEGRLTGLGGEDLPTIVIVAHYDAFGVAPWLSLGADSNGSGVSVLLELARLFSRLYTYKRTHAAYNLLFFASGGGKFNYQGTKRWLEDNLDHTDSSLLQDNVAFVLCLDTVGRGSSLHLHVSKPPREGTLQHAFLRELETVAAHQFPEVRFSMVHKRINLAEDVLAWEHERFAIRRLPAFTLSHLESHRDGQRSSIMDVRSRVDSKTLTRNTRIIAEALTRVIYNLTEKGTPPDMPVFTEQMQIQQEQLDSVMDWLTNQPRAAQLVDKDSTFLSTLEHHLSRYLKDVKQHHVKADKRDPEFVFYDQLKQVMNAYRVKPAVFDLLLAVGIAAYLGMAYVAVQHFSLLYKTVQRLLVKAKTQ
# In short: as §1
# [4] = biological target: T4, UniProt Q96AX2 and related entries
# T4 sequence (whole entry): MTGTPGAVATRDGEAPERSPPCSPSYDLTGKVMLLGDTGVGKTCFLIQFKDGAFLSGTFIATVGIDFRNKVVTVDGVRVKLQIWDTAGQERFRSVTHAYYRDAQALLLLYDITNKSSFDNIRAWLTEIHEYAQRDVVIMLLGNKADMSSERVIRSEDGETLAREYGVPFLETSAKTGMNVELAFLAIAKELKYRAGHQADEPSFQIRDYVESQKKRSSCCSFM
# In short: as §1
# [5] = biological target: T5, UniProt Q96AY2 and related entries
# T5 sequence (whole entry): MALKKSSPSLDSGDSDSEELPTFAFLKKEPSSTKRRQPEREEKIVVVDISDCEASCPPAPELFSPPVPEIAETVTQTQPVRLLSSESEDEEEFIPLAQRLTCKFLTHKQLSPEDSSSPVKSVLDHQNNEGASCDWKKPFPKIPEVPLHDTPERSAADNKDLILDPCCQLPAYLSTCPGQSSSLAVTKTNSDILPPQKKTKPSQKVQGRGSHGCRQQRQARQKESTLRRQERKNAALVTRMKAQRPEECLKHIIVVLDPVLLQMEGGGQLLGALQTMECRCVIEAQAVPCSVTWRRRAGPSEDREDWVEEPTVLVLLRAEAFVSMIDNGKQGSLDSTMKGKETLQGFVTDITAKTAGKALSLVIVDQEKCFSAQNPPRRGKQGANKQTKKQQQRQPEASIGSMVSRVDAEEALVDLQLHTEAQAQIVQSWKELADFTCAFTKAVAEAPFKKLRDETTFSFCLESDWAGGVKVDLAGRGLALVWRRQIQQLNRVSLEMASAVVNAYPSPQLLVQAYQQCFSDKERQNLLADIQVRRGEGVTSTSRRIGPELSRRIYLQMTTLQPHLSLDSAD
# In short: as §1
# WASF1 = biological target: T6, WASF1 (UniProt Q92558)
# T6 sequence (whole entry): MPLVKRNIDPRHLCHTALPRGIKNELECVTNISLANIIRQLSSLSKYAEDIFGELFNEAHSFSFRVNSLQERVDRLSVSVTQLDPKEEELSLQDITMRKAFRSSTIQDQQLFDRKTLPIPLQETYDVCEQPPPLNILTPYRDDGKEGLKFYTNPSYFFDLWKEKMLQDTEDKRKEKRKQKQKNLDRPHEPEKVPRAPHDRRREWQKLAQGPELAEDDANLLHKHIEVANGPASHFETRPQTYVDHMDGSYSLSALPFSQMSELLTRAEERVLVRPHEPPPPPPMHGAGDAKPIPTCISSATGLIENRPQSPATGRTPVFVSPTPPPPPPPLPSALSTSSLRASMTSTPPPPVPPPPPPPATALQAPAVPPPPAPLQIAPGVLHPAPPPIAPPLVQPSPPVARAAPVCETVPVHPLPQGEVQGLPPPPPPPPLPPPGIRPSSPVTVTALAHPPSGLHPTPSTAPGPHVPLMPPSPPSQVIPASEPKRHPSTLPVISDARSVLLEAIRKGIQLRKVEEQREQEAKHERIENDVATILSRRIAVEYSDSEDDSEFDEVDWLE
# In short: as §1
smiles,measurement,setting,value
Nc1ncnc2c1ncn2[C@@H]1O[C@H](COP(=O)(O)OP(=O)(O)OP(=O)(O)O)[C@@H](O)[C@H]1O [adenosine triphosphate],NP40-soluble protein abundance,[1]; concentration: 6mM,1.33 ± 0.092
same,NP40-soluble protein abundance,[1]; concentration: 8mM,1.3 ± 0.075
same,NP40-soluble protein abundance,[1]; concentration: 10mM,1.36 ± 0.095
same,NP40-soluble protein abundance,[2]; concentration: 1mM,0.967 ± 0.053
same,NP40-soluble protein abundance,[2]; concentration: 2mM,0.969 ± 0.034
same,NP40-soluble protein abundance,[2]; concentration: 4mM,0.947 ± 0.021
same,NP40-soluble protein abundance,[2]; concentration: 6mM,0.989 ± 0.036
same,NP40-soluble protein abundance,[2]; concentration: 8mM,0.9241 ± 0.0058
same,NP40-soluble protein abundance,[2]; concentration: 10mM,0.937 ± 0.01
same,NP40-soluble protein abundance,[3]; concentration: 1mM,1.02 ± 0.094
same,NP40-soluble protein abundance,[3]; concentration: 2mM,1.02 ± 0.074
same,NP40-soluble protein abundance,[3]; concentration: 4mM,1.03 ± 0.072
same,NP40-soluble protein abundance,[3]; concentration: 6mM,0.953 ± 0.085
same,NP40-soluble protein abundance,[3]; concentration: 8mM,1.02 ± 0.052
same,NP40-soluble protein abundance,[3]; concentration: 10mM,1.03 ± 0.055
same,NP40-soluble protein abundance,[4]; concentration: 1mM,0.994 ± 0.072
same,NP40-soluble protein abundance,[4]; concentration: 2mM,0.985 ± 0.1
same,NP40-soluble protein abundance,[4]; concentration: 4mM,0.965 ± 0.14
same,NP40-soluble protein abundance,[4]; concentration: 6mM,0.928 ± 0.12
same,NP40-soluble protein abundance,[4]; concentration: 8mM,0.989 ± 0.063
same,NP40-soluble protein abundance,[4]; concentration: 10mM,0.978 ± 0.089
same,NP40-soluble protein abundance,[5]; concentration: 1mM,1.11 ± 0.18
same,NP40-soluble protein abundance,[5]; concentration: 2mM,1.05 ± 0.093
same,NP40-soluble protein abundance,[5]; concentration: 4mM,1.02 ± 0.02
same,NP40-soluble protein abundance,[5]; concentration: 6mM,0.893 ± 0.084
same,NP40-soluble protein abundance,[5]; concentration: 8mM,0.999 ± 0.011
same,NP40-soluble protein abundance,[5]; concentration: 10mM,1.03 ± 0.046
same,NP40-soluble protein abundance,WASF1; concentration: 1mM,0.94 ± 0.068
same,NP40-soluble protein abundance,WASF1; concentration: 2mM,0.97 ± 0.042
same,NP40-soluble protein abundance,WASF1; concentration: 4mM,0.971 ± 0.032
same,NP40-soluble protein abundance,WASF1; concentration: 6mM,0.998 ± 0.044
same,NP40-soluble protein abundance,WASF1; concentration: 8mM,0.949 ± 0.033
same,NP40-soluble protein abundance,WASF1; concentration: 10mM,0.96 ± 0.015
